ChEMBL document CHEMBL4513149, “CO-ADD screening of MMV (CH) - MMV compounds” (2021)
The list shows a part of the results. Measured potencies and affinities stand elsewhere.

Each compound was assayed on Acinetobacter baumannii. Conditions: Concentration 20 uM; ASSAY_TEST Inhibition of Bacterial Growth; detection method Absorption (OD600); MEDIA CAMHB; plate type 384well; NBS; CORNING #3640; time 18 hr.

| SMILES | Inhibition [%] |
| --- | --- |
| CC(C)(C(=O)Nc1ccc(F)cc1)n1cc(-c2ccccc2F)cn1 | 2.99 |
| O=C(C1CCCCC1)N1CC(=O)N2CCc3ccccc3C2C1 (centres undefined) [PRAZIQUANTEL] | 8.03 |
| C[C@]1(O)C[C@@H](c2nc(-c3ccc4ccc(-c5ccccc5)nc4c3)c3c(N)nccn32)C1 [LINSITINIB] | 1.08 |
| CC1=Nc2ccc(Cl)cc2C(O)(c2ccc(C)cc2)N1CCN1CCCCC1 (centres undefined) | 18.37 |
| Cc1c[nH]c(CCNC(=O)c2cc(-c3ccc(Cl)cc3)cs2)n1 | 12.2 |
| CS(=O)(=O)c1ccccc1C(=O)N(Cc1ccccc1)c1ccccc1 | 7.41 |
| Cc1ccc(Oc2ccc(NC(=O)CNc3ccccc3N3CCCC3=O)cc2)cc1 | -1.28 |
| O=C(Nc1cnc2ccccc2c1)c1cccc(-n2cnnn2)c1 | 9.83 |
| O=C(Nc1nc(-c2ccccn2)cs1)C1CC1c1ccccc1F (centres undefined) | 3.08 |
| CCc1ccc([C@@H]2C[C@H](C(F)(F)F)n3ncc(C(=O)NCc4ccc(OC)cc4)c3N2)cc1 | 6.65 |
| CC(C)(CN)c1nc(-c2ccc(Cl)c(O)c2)c(-c2ccnc(N)n2)[nH]1.O=C(O)C(F)(F)F.O=C(O)C(F)(F)F | 11.71 |
| CCc1nc2ccccc2n1CC(O)COc1cc(C)ccc1Cl (centres undefined) | 9.63 |
| c1ccc(Oc2ccc(-c3cc(CN4CCOCC4)[nH]n3)cc2)cc1 | 5.65 |
| Cc1ccc2oc(-c3cc(NC(=O)Cc4ccccc4)ccc3Cl)nc2c1 | 11.57 |
| COc1ccc(CCN2CCC(NCc3cccc(N(C)C)c3)CC2)cc1 | 7.23 |
| Cc1nc2ccccn2c1C(=O)NCc1ccc(Cl)cc1 | 7.73 |
| Cc1cc(C(=O)Nc2ccc(-c3ccccc3)cc2)no1 | 11.25 |
| CCc1ccc(S(=O)(=O)Nc2cc(CN3CCN(CCC(C)C)CC3)ccc2C)cc1 | 13.11 |
| COC(=O)c1c(NC(=O)c2cc3ccccc3oc2=O)sc2c1CCN(Cc1ccccc1)C2 | -0.26 |
| CCc1ccccc1-n1c(C)cn2c3c(=O)n(C(C(=O)OC)C(C)C)c(=O)n(C)c3nc12 (centres undefined) | 5.63 |

Ordered by formula weight (low to high): some entries from above.

| SMILES | Inhibition [%] |
| --- | --- |
| O=C(Nc1cnc2ccccc2c1)c1cccc(-n2cnnn2)c1 | 9.83 |
| CC(C)(C(=O)Nc1ccc(F)cc1)n1cc(-c2ccccc2F)cn1 | 2.99 |
| CS(=O)(=O)c1ccccc1C(=O)N(Cc1ccccc1)c1ccccc1 | 7.41 |
| COc1ccc(CCN2CCC(NCc3cccc(N(C)C)c3)CC2)cc1 | 7.23 |

Going on with the list:

| SMILES | Inhibition [%] |
| --- | --- |
| Cc1[nH]c2cc(F)cc(F)c2c(=O)c1-c1ccc(Oc2ccc(OC(F)(F)F)cc2)cc1 | 8.69 |
| CC(C)(C)c1cnc(NC(=O)c2ccccc2O)s1 | 6.13 |
| NS(=O)(=O)c1cccc(-c2ccc3ncc(N4CCOCC4)nc3c2)c1 | 8.42 |
| CC(C)(C)n1nc(Cc2cccc3ccccc23)c2c(N)ncnc21 | 4.84 |
| COc1ccc(N(CCc2cccc(C)n2)C(C)=O)cc1 | 12.66 |
| COc1cc2ncnc(NC3CCN(Cc4ccccc4)CC3)c2cc1OC | 8.99 |
| FC(F)(F)c1cc(NCCc2ccccc2)nc(-c2ccccn2)n1 | 10.16 |
| Cc1nnc(NCc2cccc(Cl)c2)c2ccccc12 | 12.22 |
| CCc1nc2ccc(Cl)cn2c1C(=O)NCc1ccc(N2CCC(c3ccc(OC(F)(F)F)cc3)CC2)cc1 [TELACEBEC] | 10.44 |
| COc1ccc(N(CCc2cccc(C)n2)C(=O)C2CCCCC2)cc1 | 6.01 |
| Cc1ccc(NC(=O)c2nc[nH]c2C(=O)Nc2nc3ccccc3[nH]2)c(C)c1 | 2.26 |
| CCc1nc2ccc(C(=O)NCc3ccc4c(c3)OCO4)cn2c1N(C)Cc1cccs1 | 7.8 |
| CC(C)(C)n1nc(Cc2ccc(F)c(Cl)c2)c2c(N)ncnc21 | 5.26 |
| Cc1nc(-c2ccccn2)nc(NCCc2ccc(S(C)(=O)=O)cc2)c1Cl | 11.73 |
| O=C(NC1CC1)c1ccc(N2CCOc3ccc(Cl)cc32)s1 | 10.81 |
| COc1ccc2nc(C)cc(OCC(=O)NCc3ccccc3)c2c1 | 10.89 |
| c1coc(CNc2nc(N3CCCCC3)nc3ccccc23)c1 | 7.77 |
| O=C(N[C@H](Cc1ccccc1)C(=O)Nc1ccccc1N1CCOCC1)c1cccs1 | 12.49 |
| Cl.O[C@@H](c1cc(C(F)(F)F)nc2c(C(F)(F)F)cccc12)[C@H]1CCCCN1 | 13.75 |
| O=C1COCc2ccc(Br)cc2N1Cc1ccc(C(F)(F)F)cc1 | 13.16 |

| SMILES | Inhibition [%] |
| --- | --- |
| CC(C)(C)c1cc(C(=O)Nc2cccnc2)cc(C(=O)Nc2cccnc2)c1 | 9.41 |
| Nc1ncnc2c1ncn2C[C@@H](O)[C@@H](O)C(=O)O [ERITADENINE] | 10.49 |
| COCC(C)NC(=O)CSc1ncnc2sc(-c3ccccc3)cc12 (centres undefined) | 8.68 |
| c1ccc(-c2cc(N3CCCCC3)c3ccccc3n2)nc1 | 9.44 |
| O=C(c1ccc(NCCO)cc1)C1C[C@H]1c1ccc(Cl)cc1 (some centres undefined) | 6.14 |
| COc1cccc(CC(=O)N2CCC(n3c(C)nc4ccc(F)cc43)CC2)c1 | 10.01 |
| Nc1nc(N)c2c3c(sc2n1)CN(Cc1ccccc1)CC3 | 8.25 |
| c1ccc(Oc2ccc(-c3cncc(-c4ccc5[nH]ccc5c4)n3)cc2)cc1 | -3.91 |
| COc1cc(C2=NCCN2)ccc1-n1cc(-c2cccc(C3=NCCN3)c2)nn1.O=CO.O=CO | 14.98 |
| COc1ccc(-c2nnc3ccc(-c4cccc(C(C)C)c4)cn23)cc1OC | -4.84 |
| Cc1cc(OCC(=O)Nc2ccc(C(C)C)cc2)n(C)c(=O)c1C#N | -2.1 |
| COC(=O)c1cccc2oc(-c3cccc(OC)c3NC(=O)c3cc(-c4ccccc4)on3)nc12 | 11.12 |
| COc1cc(OC)cc(C(=O)NCC2Cc3cc(Cl)cc(-c4ccncc4)c3O2)c1 (centres undefined) | 4.32 |
| O=C(NCCc1ccccc1)c1cc(-c2cccnc2)cnc1NCC1CC1 | -10.88 |
| Nc1nccc2ccc(Oc3ccncc3)cc12 | 15.12 |
| CCC(NC(=O)c1ccccc1NC(=O)c1ccc(C)cc1)C(=O)OC (centres undefined) | 4.67 |
| O=C(Nc1ccnc(-c2cccnc2)n1)c1cc(C(F)(F)F)cc(C(F)(F)F)c1 | 15.41 |
| NCC(=O)N1CCn2c(nc(-c3ccccc3)c2Nc2ccc3c(c2)OCO3)C1 | 6.29 |
| c1ccc(Oc2ccc(-c3cc(C4CCOCC4)[nH]n3)cc2)cc1 | 4.43 |
